{"sequences": {"note": "Amino acid sequences for entries named in this document (tags omitted). A change or cut given only in a name is not applied to a line headed by its entry.", "UniProt P51450": "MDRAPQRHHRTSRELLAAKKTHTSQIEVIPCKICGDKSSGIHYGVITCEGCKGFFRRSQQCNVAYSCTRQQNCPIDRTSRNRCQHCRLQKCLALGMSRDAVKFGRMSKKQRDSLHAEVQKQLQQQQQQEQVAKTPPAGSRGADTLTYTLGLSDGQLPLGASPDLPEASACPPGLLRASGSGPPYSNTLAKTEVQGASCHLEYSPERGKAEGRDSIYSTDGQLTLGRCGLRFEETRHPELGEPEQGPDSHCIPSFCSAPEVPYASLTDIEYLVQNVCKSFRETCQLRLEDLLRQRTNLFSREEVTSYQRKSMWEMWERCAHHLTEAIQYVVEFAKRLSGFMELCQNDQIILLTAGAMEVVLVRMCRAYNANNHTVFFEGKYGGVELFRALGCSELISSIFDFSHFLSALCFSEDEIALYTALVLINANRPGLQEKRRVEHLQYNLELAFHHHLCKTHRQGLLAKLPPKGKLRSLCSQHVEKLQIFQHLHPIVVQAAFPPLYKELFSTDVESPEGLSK"}, "source": "PubChem BioAssay AID2551", "about": "(National Center for Advancing Translational Sciences (NCATS), 2010)", "note": "Screen size: about 310,000 compounds; about 17,000 (5.5%) were called active. The shares of active, inactive and inconclusive entries below differ from those in the screen. Calls come from the whole dose curve; as a rule, active = well fitted inhibition curve with a large enough effect; inconclusive = small, poorly fitted or top-dose-only effect, or effect the other way; inactive = no such curve, though single readings can be large or run the other way. Potencies of inconclusive entries are doubtful fits and often do not repeat. % is set by controls: 0 for no effect and ±100 for the full control effect; potency is the fitted concentration of half-maximal effect."}
{"molecular_target": "Nuclear receptor ROR-gamma (Mus musculus) (UniProt P51450)", "test": "qHTS for inhibitors of ROR gamma transcriptional activity; note: nearly all actives have a fitted effect of over 60% in size", "details": "Drosophila S2 Gal4-RORgamma UAS-luciferase reporter, 20 h; activity change, negative = inhibition: at 53.6 µM (top of the series)", "method_in_brief": "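In this cell-based reporter format, copper sulfate (700 uM final) drives Gal4–ROR gamma fusion expression from a metallothionein promoter in Drosophila Schneider cells; compounds preincubated 1 hr, reporter read after 20 hr at ambient temperature.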"}
{"smiles": "Cc1ccc(-c2csc(NNC(=O)c3ccccc3)n2)cc1", "Potency": "active: 5.01 µM"}
{"smiles": "CC(=O)Nc1ccccc1OCCOc1ccc(Br)cc1", "Potency": "inconclusive: 35.5 µM [inhibitor, single point]"}
{"smiles": "Cc1cc(-c2ccccc2)nc(N/N=C/c2ccco2)n1", "Potency": "active: 8.91 µM"}
{"smiles": "O=c1cnc2cnc(Oc3ccccc3)nc2n1C[C@H]1CCCO1", "Potency": "inconclusive: 3.55 µM [inhibitor, single point]"}
{"smiles": "COc1ccc(OC)c(Nc2nc(-c3sc(N)nc3C)cs2)c1", "Potency": "inactive"}
{"smiles": "CCOC(=O)c1sc(-c2ccc(F)cc2)cc1N", "Potency": "inconclusive: 0.447 µM [activator, full curve, poor fit]"}
{"smiles": "CC(=O)N=c1sc(S(N)(=O)=O)nn1C", "Potency": "inactive"}
{"smiles": "Cc1cc(C)c2c(=O)n(CC(=O)Nc3cccc(F)c3)sc2n1", "Potency": "inconclusive: 15.8 µM [inhibitor, single point]"}
{"smiles": "Cc1cc(O)c(-c2n[nH]c3c2C(c2cccc(O)c2)N(Cc2cccnc2)C3=O)cc1Cl", "note": "(centres undefined)", "Potency": "inconclusive: 25.1 µM [inhibitor, single point]"}
{"smiles": "c1ccc(-n2ncc(-c3nn[nH]n3)n2)cc1", "Potency": "inconclusive: 4.47 µM [inhibitor, single point]"}
{"smiles": "O=C1CSC(c2ccccn2)N1Cc1cn2ccccc2n1", "note": "(centres undefined)", "Potency": "inconclusive: 8.91 µM [inhibitor, partial curve]"}
{"smiles": "COc1cc(OC)c(C(=O)OCCCOC(=O)c2cc(OC)c(OC)cc2OC)cc1OC", "Potency": "active: 7.94 µM"}
{"smiles": "O=C(CSc1ccccn1)Nc1nonc1[N+](=O)[O-]", "Potency": "active: 5.62 µM"}
{"smiles": "C=CCn1c(=N)c(C#N)cc2c(=O)n3ccccc3nc21", "Potency": "inconclusive: 0.631 µM [inhibitor, full curve, poor fit]"}
{"smiles": "CCOC(=O)N1CCN(S(=O)(=O)c2ccc(C(=O)Nc3nnc(CSC)o3)cc2)CC1", "Potency": "active: 12.6 µM"}
{"smiles": "COc1ccccc1-c1cc(C(=O)N/N=C/c2ccc(C)s2)c2ccccc2n1", "Potency": "active: 2.82 µM"}
{"smiles": "O=C(c1csc(Nc2cccc3ccccc23)n1)N1CCCC1", "Potency": "inconclusive: 35.5 µM [inhibitor, single point]"}
{"smiles": "CCn1c(O)c(C2=c3ccccc3=NC2=O)c2cc(Br)ccc21", "Potency": "inconclusive: 5.62 µM [inhibitor, single point]"}
{"smiles": "Cc1nn(C)cc1CNC(=O)c1cccc(Br)c1", "Potency": "inconclusive: 4.47 µM [inhibitor, full curve, poor fit]"}
{"smiles": "CC(C)(C)n1nnnc1C(c1ccc(F)cc1)N(Cc1ccc(F)cc1)Cc1ccco1", "note": "(centres undefined)", "Potency": "active: 11.2 µM"}
{"smiles": "COc1cccc(NC(=O)Nc2cccs2)c1", "Potency": "active: 6.31 µM"}
{"smiles": "CCn1c(-c2ccc([N+](=O)[O-])cc2)n[nH]c1=S", "Potency": "active: 11.2 µM"}
{"smiles": "O=C(Nc1ccc(S(=O)(=O)Nc2cnc3ccccc3n2)cc1)c1ccccc1Br", "Potency": "inconclusive: 15.8 µM [activator, partial curve]"}
{"smiles": "O=C(Cc1cccs1)N1CCCC(c2nc3c(nnn3Cc3cccc(Cl)c3)c(=O)[nH]2)C1", "note": "(centres undefined)", "activity change, negative = inhibition": "inactive: 2.56% [at 10 µM]"}
{"smiles": "Cn1c(-c2cc(Br)ccc2O)n[nH]c1=S", "Potency": "inconclusive: 35.5 µM [inhibitor, single point]"}
{"smiles": "CCCc1nnc(NC(=O)CCC(=O)N2CCN(Cc3ccc(C)cc3C)CC2)s1", "Potency": "inconclusive: 25.1 µM [activator, single point]"}
{"smiles": "O=C(Cc1c[nH]c2ccccc12)N/N=C/c1ccccc1O", "Potency": "active: 2.24 µM"}
{"smiles": "CCn1c(=O)c(C(=O)NNC(=O)c2ccccc2)c(O)c2ccccc21", "Potency": "inconclusive: 31.6 µM [inhibitor, single point]"}
{"smiles": "O=C(CSc1nc2ccccc2c(=O)n1-c1ccccc1)NCc1ccc2c(c1)OCO2", "Potency": "inactive"}
{"smiles": "Cc1ccc(Sc2cncc3sc(C(N)=O)cc23)cc1", "Potency": "inconclusive: 0.141 µM [inhibitor, full curve]"}
{"smiles": "O=C(NCCc1c[nH]c2ccccc12)c1cc(Cl)c2c(c1)OCO2", "Potency": "inconclusive: 22.4 µM [activator, single point]"}
{"smiles": "COc1ccc(C23CC4CC(CC(C4)C2)C3)cc1C(=O)NCCN(C)C", "Potency": "inconclusive: 35.5 µM [inhibitor, single point]"}
{"smiles": "CCOc1ccc(S(=O)(=O)NC2CCCCCC2)cc1", "Potency": "inconclusive: 11.2 µM [activator, partial curve]"}
{"smiles": "O=[N+]([O-])c1ccc(NNS(=O)(=O)c2cc(Cl)ccc2Cl)nc1", "Potency": "active: 12.6 µM"}
{"smiles": "Cc1cc(N(CN2CCCC2=O)C(=O)c2ccc(OC(C)C)cc2)no1", "Potency": "inconclusive: 11.2 µM [activator, single point]"}
{"smiles": "CC(=O)Nc1ccc(S(=O)(=O)Nc2nc3ccccc3nc2Nc2ccc(O)c(C(=O)O)c2)cc1", "Potency": "inactive"}
{"smiles": "c1ccn2cc(CSC3=NCCS3)nc2c1", "Potency": "inconclusive: 3.16 µM [inhibitor, single point]"}
{"smiles": "S=C(Nc1cccc(Cl)c1)N(CCCN1CCCC1)Cc1cccn1Cc1ccc(Cl)cc1", "Potency": "active: 17.8 µM"}
{"smiles": "COc1cccc(NC(=O)CN2C(=O)CSc3ccc(S(=O)(=O)N4CCC(C)CC4)cc32)c1", "Potency": "inconclusive: 14.1 µM [activator, single point]"}
{"smiles": "Cc1cc(CNC(=O)[C@H]2C[C@@H]2[C@H](NP(=O)(c2ccccc2)c2ccccc2)c2ccccc2)nn1C", "Potency": "inconclusive: 35.5 µM [activator, single point]"}
{"smiles": "O=S(=O)(c1ccccc1Cl)N1CCC(O)(c2cccnc2)CC1", "Potency": "inactive"}
{"smiles": "CCOc1cccc(C(=O)NC2=NCCS2)c1", "Potency": "inconclusive: 10 µM [inhibitor, partial curve, poor fit]"}
{"smiles": "Cc1nc(OCc2ccccc2)c2ccccc2n1", "Potency": "inconclusive: 12.6 µM [inhibitor, single point]"}
{"smiles": "COc1ccc(/C=C/c2nc3ccccc3n2Cc2ccccc2OC)cc1", "Potency": "active: 14.1 µM"}
{"smiles": "COC(=O)CN1C(=O)S/C(=C/c2ccc(N3CCCCC3)o2)C1=O", "Potency": "inconclusive: 35.5 µM [inhibitor, single point]"}
{"smiles": "CCN1C(=O)N(c2cccc3ccccc23)C(C)=CC1(C)C", "Potency": "inactive"}
{"smiles": "CCOc1ccc2[nH]c3c(=O)n(CCc4ccc(OC)cc4)cnc3c2c1", "Potency": "inactive"}
{"smiles": "CC1(C)CC(=O)C(C=NCc2ccc3c(c2)OCO3)=C(O)C1", "Potency": "inconclusive: 0.224 µM [activator, single point]"}
{"smiles": "CSCCC(NC(=O)c1ccccc1)C(=O)OCC(=O)Nc1ccc(C)c(Cl)c1", "note": "(centres undefined)", "Potency": "inconclusive: 35.5 µM [inhibitor, single point]"}
{"smiles": "NC(=O)C(c1ccc(F)cc1)c1ccc(C(=O)c2ccccc2)cc1", "note": "(centres undefined)", "Potency": "inconclusive: 17.8 µM [activator, partial curve, poor fit]"}
{"smiles": "CC(C)(C)c1ccc(C(=O)c2c[nH]c(C(=O)NCc3cccs3)c2)cc1", "Potency": "inconclusive: 35.5 µM [inhibitor, single point]"}
{"smiles": "S=C(Nc1ccccc1Cl)NC1CCCCCC1", "Potency": "active: 3.55 µM"}
{"smiles": "Cc1cc[n+](CC2OCc3ccccc3CO2)cc1", "Potency": "inconclusive: 35.5 µM [activator, single point]"}
{"smiles": "COc1cc(C(=S)N2CCOCC2)cc(OC)c1OC(=O)Cc1ccc(F)cc1", "Potency": "inactive"}
{"smiles": "Clc1ccc2nc(-c3ccc4c(c3)OCO4)cn2c1", "Potency": "active: 5.01 µM"}
{"smiles": "O=C(Nc1ccc(S(=O)(=O)NCCc2ccccc2)cc1)c1ccco1", "Potency": "inconclusive: 35.5 µM [activator, single point]"}
{"smiles": "CCSc1nnc(CNC(=O)C23CC4CC(CC(C4)C2)C3)n1C1CCCCC1", "Potency": "inconclusive: 5.01 µM [inhibitor, full curve]"}
{"smiles": "O=C(NNc1c(Cl)cccc1Cl)c1sccc1Cl", "Potency": "inactive"}
{"smiles": "C=C(C)COc1ccc(-c2[nH]ncc2Oc2ccccc2OC)c(O)c1", "Potency": "active: 11.2 µM"}
{"smiles": "CCS(=O)(=O)c1ccc(O)c(NC(=O)/C=C/c2ccccc2)c1", "Potency": "inconclusive: 8.91 µM [activator, partial curve]"}
{"smiles": "CCCCc1ccc(NC(=S)N2CCCC(CO)C2)cc1", "note": "(centres undefined)", "Potency": "active: 15.8 µM"}
{"smiles": "O=C(N/N=C/c1ccccc1OCc1ccccc1)c1cccnc1", "Potency": "inactive"}
{"smiles": "C/C(=N\\NC(=O)c1ccccc1O)c1ccc(NC(=O)Cc2ccccc2)cc1", "Potency": "inconclusive: 35.5 µM [inhibitor, single point]"}
{"smiles": "CC(=O)Nc1nc(C)c(C(C)C)s1", "Potency": "inactive"}
{"smiles": "CCSCC1COC(c2cccn2Cc2ccc(C)cc2)=N1", "note": "(centres undefined)", "Potency": "inconclusive: 14.1 µM [inhibitor, partial curve, poor fit]"}
{"smiles": "O=C(Nc1ccc(OCC(=O)N2CCOCC2)cc1)c1ccccc1F", "Potency": "inconclusive: 11.2 µM [inhibitor, partial curve, poor fit]"}
{"smiles": "O=C1NC(=S)S/C1=C\\c1cc2ccccc2nc1N1CCCCC1", "Potency": "inactive"}
{"smiles": "COc1ccc(NC(=O)CNS(=O)(=O)c2ccc(Cl)cc2)cc1", "Potency": "inconclusive: 0.316 µM [inhibitor, full curve, poor fit]"}
{"smiles": "O=c1c2cc(Br)ccc2nc(-c2ccc([N+](=O)[O-])cc2)n1O", "Potency": "inconclusive: 10 µM [inhibitor, partial curve]"}
{"smiles": "COc1ccc(CNc2nc(-c3cccnc3)nn2C(=O)c2cccs2)cc1", "Potency": "inconclusive: 5.01 µM [activator, single point]"}
{"smiles": "[2H]C(CCOS(N)(=O)=O)c1ccc(C(C)(C)C)cc1", "note": "(centres undefined)", "Potency": "inactive"}
{"smiles": "COc1cc(C(=O)N/N=C/c2cccc(Oc3ccccc3)c2)ccc1O", "Potency": "inconclusive: 11.2 µM [inhibitor, partial curve]"}
{"smiles": "c1ccc(-c2nc(-n3nc4ccccc4n3)nc3ccccc23)cc1", "Potency": "inconclusive: 1.12 µM [inhibitor, full curve, poor fit]"}
{"smiles": "O=C(O)CCC/C=C\\C/C=C\\C=C\\[C@@H](O)C/C=C\\CCCCCO", "Potency": "inactive"}
